These are yes or no findings as the source states them, for the method shown. Binding seen in cells or lysates may run through a third protein. Some binding calls cover weakened binding; strength is not graded here.

Chains of the proteins cited; added tags and fusions are not shown.
UniProt Q71VM4: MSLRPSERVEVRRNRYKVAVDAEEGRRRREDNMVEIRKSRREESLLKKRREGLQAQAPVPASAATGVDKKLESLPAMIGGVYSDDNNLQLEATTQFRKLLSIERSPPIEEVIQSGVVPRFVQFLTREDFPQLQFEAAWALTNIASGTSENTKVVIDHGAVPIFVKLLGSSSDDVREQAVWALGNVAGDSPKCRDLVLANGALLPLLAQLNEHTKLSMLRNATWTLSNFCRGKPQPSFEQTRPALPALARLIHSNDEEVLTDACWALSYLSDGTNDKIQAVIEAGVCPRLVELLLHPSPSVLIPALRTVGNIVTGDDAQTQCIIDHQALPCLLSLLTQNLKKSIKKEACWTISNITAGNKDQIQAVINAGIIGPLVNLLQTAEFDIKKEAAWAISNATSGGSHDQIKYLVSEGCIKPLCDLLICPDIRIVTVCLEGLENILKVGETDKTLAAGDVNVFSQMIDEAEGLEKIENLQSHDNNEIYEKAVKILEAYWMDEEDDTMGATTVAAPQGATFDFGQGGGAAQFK
UniProt Q9SLX0: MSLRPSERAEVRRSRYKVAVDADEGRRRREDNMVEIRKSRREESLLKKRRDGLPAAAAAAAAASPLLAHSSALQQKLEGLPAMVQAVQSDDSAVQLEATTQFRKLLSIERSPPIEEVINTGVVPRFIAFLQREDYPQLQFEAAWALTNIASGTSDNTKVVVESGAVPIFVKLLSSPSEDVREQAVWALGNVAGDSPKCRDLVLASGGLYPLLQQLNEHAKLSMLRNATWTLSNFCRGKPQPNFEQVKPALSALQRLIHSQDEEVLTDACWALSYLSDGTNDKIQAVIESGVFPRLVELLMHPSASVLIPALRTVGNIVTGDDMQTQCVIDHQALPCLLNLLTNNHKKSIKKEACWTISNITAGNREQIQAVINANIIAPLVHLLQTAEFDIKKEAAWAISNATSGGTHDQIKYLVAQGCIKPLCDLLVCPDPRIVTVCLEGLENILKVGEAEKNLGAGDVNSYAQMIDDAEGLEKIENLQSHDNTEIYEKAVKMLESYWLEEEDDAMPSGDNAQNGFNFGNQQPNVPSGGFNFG

The text below walks through data of PMC6637887.

The target in assay [1] is OsImpα1a-FLAG (rice (Oryza sativa)) (UniProt Q71VM4). In words: co-IP.
The target of assay [2] is OsImpα1b-FLAG (rice (Oryza sativa)) (UniProt Q9SLX0). Description: co-IP.
Assay [3] deals with OsImpα1a-cLUC (rice (Oryza sativa)) (UniProt Q71VM4). Description: split reporter.
In assay [4] the target is OsImpα1b-cLUC (rice (Oryza sativa)) (UniProt Q9SLX0). Description: split reporter.

Regarding pthXo1-myc (from UniProt B2SU53 1-1373), the binding entry in assay [1] and in assay [2] was “binds” throughout.

Turning to “pthXo1-nLUC (from UniProt B2SU53 1-1373)”, the binding entry in assay [3] and in assay [4] was “binds” each time.
